Data on one compound can be found in the supplement of paper PMC6411743.

Molecules are shown by their SMILES. ± gives the standard deviation of the averaged measurements. The list shows a part of the results, in another mix than the full data.

Experiment in all cases: NP40-soluble protein abundance relative to vehicle (solubility fold change) (ratio); higher = more soluble protein in presence of ATP
For one test, the target named is T1, NPAT (UniProt Q14207).
T1 sequence (whole entry): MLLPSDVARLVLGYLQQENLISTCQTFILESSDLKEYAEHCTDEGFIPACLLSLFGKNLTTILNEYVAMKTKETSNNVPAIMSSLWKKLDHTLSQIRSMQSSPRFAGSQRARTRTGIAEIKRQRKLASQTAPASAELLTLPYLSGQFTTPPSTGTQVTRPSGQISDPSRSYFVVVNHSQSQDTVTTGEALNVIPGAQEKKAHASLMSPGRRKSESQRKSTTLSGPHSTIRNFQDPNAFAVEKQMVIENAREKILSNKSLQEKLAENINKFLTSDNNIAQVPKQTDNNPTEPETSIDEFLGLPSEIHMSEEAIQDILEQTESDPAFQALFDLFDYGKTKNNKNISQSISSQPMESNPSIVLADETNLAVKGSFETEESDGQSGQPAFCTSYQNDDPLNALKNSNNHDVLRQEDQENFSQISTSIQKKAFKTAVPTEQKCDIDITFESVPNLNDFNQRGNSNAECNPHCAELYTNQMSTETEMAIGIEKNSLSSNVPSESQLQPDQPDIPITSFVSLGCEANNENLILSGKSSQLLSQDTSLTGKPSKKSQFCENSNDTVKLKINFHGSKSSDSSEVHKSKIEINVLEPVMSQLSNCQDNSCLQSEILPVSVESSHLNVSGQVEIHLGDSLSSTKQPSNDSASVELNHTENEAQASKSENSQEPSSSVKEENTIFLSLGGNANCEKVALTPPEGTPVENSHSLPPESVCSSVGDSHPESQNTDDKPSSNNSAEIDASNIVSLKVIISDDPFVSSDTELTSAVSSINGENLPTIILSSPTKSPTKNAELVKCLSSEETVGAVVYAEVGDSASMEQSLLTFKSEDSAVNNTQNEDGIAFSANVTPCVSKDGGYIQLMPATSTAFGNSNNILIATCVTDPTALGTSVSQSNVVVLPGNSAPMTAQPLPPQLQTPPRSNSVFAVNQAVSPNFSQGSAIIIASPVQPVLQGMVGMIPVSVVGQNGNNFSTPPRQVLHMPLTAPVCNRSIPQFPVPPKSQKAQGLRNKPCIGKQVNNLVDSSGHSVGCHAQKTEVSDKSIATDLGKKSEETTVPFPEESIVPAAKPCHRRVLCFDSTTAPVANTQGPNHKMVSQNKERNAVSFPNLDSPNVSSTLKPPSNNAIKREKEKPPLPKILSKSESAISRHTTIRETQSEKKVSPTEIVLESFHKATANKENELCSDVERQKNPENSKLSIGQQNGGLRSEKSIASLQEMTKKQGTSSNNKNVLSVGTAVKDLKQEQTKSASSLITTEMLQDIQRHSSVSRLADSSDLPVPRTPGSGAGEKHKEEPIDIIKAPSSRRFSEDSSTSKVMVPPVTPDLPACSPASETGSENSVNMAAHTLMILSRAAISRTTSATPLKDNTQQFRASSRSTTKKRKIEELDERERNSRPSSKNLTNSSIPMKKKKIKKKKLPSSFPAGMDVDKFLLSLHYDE
In short, it runs like this: (§1)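 Data come from three independent experiments in which Dounce-homogenised Jurkat crude lysate was treated at eight concentrations from 0.1 to 10 mM. Treatment ran 10 min at room temperature and then 3 min at 37 °C, after which 0.8% NP40 and benzonase were added for 60 min at 4 °C before ultracentrifugation. The supernatant underwent TMT labelling and LC-MS/MS, and vsn-normalised intensities were expressed as fold change against the detergent-processed vehicle in each replicate.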

In another test the target is T2, POLD3 (UniProt Q15054).
T2 sequence (whole entry): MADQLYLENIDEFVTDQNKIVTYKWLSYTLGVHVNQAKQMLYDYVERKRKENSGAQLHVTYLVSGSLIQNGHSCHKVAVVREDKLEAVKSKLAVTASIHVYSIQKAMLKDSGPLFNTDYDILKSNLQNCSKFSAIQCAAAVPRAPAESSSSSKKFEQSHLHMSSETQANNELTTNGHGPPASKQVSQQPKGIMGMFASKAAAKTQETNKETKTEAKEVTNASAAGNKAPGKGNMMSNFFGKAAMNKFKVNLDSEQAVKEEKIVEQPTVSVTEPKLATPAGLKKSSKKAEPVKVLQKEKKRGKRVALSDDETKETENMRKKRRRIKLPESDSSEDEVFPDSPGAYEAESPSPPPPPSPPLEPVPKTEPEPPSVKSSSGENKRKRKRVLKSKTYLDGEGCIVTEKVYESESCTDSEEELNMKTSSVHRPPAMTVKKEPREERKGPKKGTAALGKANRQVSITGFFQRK
In short, it runs like this:
as §1

The target of another test is T3, RCN1 (UniProt Q15293).
T3 sequence (whole entry): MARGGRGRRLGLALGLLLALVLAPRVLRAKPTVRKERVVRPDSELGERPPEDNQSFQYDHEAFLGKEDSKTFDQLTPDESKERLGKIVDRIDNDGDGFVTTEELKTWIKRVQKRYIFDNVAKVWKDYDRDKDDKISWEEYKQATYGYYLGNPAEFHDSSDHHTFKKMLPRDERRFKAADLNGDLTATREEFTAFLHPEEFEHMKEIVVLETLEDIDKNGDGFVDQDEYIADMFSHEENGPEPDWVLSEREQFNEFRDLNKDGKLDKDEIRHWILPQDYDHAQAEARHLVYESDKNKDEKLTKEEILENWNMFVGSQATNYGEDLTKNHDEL
The method in brief: as §1

The target in another test is T4, TTF1 (UniProt Q15361).
T4 sequence (whole entry): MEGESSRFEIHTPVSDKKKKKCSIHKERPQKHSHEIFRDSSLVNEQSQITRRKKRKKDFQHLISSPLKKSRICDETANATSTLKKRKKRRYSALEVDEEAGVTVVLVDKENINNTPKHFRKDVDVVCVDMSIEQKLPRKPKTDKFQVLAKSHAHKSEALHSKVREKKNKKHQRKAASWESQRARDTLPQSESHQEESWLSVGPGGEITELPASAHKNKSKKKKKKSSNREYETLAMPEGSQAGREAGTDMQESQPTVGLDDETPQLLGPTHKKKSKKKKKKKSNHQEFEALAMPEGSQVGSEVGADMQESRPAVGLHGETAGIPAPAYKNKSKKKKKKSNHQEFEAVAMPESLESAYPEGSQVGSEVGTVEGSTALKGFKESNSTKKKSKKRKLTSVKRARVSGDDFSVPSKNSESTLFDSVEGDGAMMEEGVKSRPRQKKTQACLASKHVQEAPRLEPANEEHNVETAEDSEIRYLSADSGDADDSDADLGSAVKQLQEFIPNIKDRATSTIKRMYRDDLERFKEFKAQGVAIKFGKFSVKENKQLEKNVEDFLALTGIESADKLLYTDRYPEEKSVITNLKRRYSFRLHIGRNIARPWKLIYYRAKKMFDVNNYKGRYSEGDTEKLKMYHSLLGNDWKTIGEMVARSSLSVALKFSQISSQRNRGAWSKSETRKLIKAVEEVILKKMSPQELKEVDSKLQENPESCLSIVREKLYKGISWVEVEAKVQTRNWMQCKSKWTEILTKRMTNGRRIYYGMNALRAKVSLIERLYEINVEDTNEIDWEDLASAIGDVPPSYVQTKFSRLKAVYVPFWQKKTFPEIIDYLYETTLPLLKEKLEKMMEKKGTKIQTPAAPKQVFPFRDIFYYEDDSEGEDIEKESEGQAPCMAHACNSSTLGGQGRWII
The method in brief:
as §1

`Nc1ncnc2c1ncn2[C@@H]1O[C@H](COP(=O)(O)OP(=O)(O)OP(=O)(O)O)[C@@H](O)[C@H]1O` [adenosine triphosphate]: the NP40-soluble protein abundance in the test with NPAT (concentration: 1mM) worked out at 1 ± 0.067; with NPAT (concentration: 2mM) it was 0.99 ± 0.1; in the test with NPAT (concentration: 4mM) it was 1.03 ± 0.024; with NPAT (concentration: 6mM) it was 1.07 ± 0.13; with NPAT (concentration: 8mM), 1 ± 0.074; in the test with NPAT (concentration: 10mM), 1.03 ± 0.081. Further, the NP40-soluble protein abundance with POLD3 (concentration: 1mM) was determined as 0.9308 ± 0.0092; in the test with POLD3 (concentration: 2mM), 0.938 ± 0.039; with POLD3 (concentration: 4mM), 0.907 ± 0.058; in the test with POLD3 (concentration: 6mM) it was 0.941 ± 0.027; with POLD3 (concentration: 8mM) it was 0.887 ± 0.049; in the test with POLD3 (concentration: 10mM) it was 0.897 ± 0.041. The NP40-soluble protein abundance with RCN1 (concentration: 1mM) stood at 0.991 ± 0.059; with RCN1 (concentration: 2mM), 1.002 ± 0.0026; with RCN1 (concentration: 4mM), 0.987 ± 0.011; in the test with RCN1 (concentration: 6mM) it was 0.993 ± 0.014; with RCN1 (concentration: 8mM) it was 0.98 ± 0.02; with RCN1 (concentration: 10mM) it was 0.962 ± 0.045. Besides, the NP40-soluble protein abundance with TTF1 (concentration: 1mM) is 0.925 ± 0.13; in the test with TTF1 (concentration: 2mM) it was 0.903 ± 0.16; in the test with TTF1 (concentration: 4mM), 0.946 ± 0.17; with TTF1 (concentration: 6mM) it was 0.942 ± 0.2; in the test with TTF1 (concentration: 8mM) it was 0.954 ± 0.18; in the test with TTF1 (concentration: 10mM) it was 0.931 ± 0.23.
